Measured data: PubChem BioAssay AID1259308 (NCATS, 2017)

- Assay: 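Knock-downs that increase output of a recombinant reporter protein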 (primary screen)
- System: human HEK293 embryonic kidney cells stably expressing firefly luciferase (HEK-CMV-Luc2-Hygro)
- Knock-down reagent: single siRNA against human genes, 0.8 pmol siRNA per well
- Time to read-out: 72 h
- Read-out: 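Luciferase light (ONE-Glo) measured on one replicate plate set and viability (CellTiter-Glo) on the other, scaled to a negative control siRNA, with robust z-scores and luciferase per cell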
- Reading the numbers: total luciferase, z-score: higher = more reporter protein produced
- Hit rule: 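Active when the median/MAD z-score for overall luciferase is greater than 3; a gene was taken forward for validation with new siRNAs if at least two of its three siRNAs passed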
- Calls: active = raised luciferase; inactive = no rise
This is a random part of about 59,000 reagents. Over the whole deposit, about 1,510 (2.6%) got an active call. 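Calls use total luciferase alone and ignore viability, so some active siRNAs may act by altering cell number.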 A number with no mark means an inactive call. Reagents against one gene are numbered here. Further read-outs or replicates are left out here. No sequences are given here.

Target gene | reagent | total luciferase, z-score
WFDC1 (GeneID 58189) | 1 | 2.55
WFDC1 (GeneID 58189) | 2 | 0.757
WFDC1 (GeneID 58189) | 3 | -1.59
MST1R (GeneID 4486) | 1 | -1.8
MST1R (GeneID 4486) | 2 | 1.29
MST1R (GeneID 4486) | 3 | -1.15
TM2D2 (GeneID 83877) | 1 | -0.14
TM2D2 (GeneID 83877) | 2 | 0.119
TM2D2 (GeneID 83877) | 3 | -0.896
PCDHA11 (GeneID 56138) | 1 | 0.0867
PCDHA11 (GeneID 56138) | 2 | -0.644
PCDHA11 (GeneID 56138) | 3 | 0.417
CTSLP3 (GeneID 644021) | 1 | 0.346
CTSLP3 (GeneID 644021) | 2 | 0.629
CTSLP3 (GeneID 644021) | 3 | -0.462

The list goes on; the last 5 above are carried over.
Target gene | reagent | total luciferase, z-score
PCDHA11 (GeneID 56138) | 2 | -0.644
PCDHA11 (GeneID 56138) | 3 | 0.417
CTSLP3 (GeneID 644021) | 1 | 0.346
CTSLP3 (GeneID 644021) | 2 | 0.629
CTSLP3 (GeneID 644021) | 3 | -0.462
C1QBP (GeneID 708) | 1 | 0.577
C1QBP (GeneID 708) | 2 | 0.0739
C1QBP (GeneID 708) | 3 | -0.721
TBX20 (GeneID 57057) | 1 | -0.518
TBX20 (GeneID 57057) | 2 | -0.32
TBX20 (GeneID 57057) | 3 | 1.1
ENDOU (GeneID 8909) | 1 | 0.372
ENDOU (GeneID 8909) | 2 | -0.844
ENDOU (GeneID 8909) | 3 | -0.579
HYAL4 (GeneID 23553) | 1 | -0.671
HYAL4 (GeneID 23553) | 2 | 0.0314
HYAL4 (GeneID 23553) | 3 | 0.638
SLC9A9 (GeneID 285195) | 1 | -0.466
SLC9A9 (GeneID 285195) | 2 | 1.13
SLC9A9 (GeneID 285195) | 3 | -0.561
CYP20A1 (GeneID 57404) | 1 | -0.266
CYP20A1 (GeneID 57404) | 2 | -1.2
CYP20A1 (GeneID 57404) | 3 | -0.62
NR4A3 (GeneID 8013) | 1 | 2.04
NR4A3 (GeneID 8013) | 2 | 1.24
NR4A3 (GeneID 8013) | 3 | -0.248
SH3BP2 (GeneID 6452) | 1 | 1.71
SH3BP2 (GeneID 6452) | 2 | -0.0164
SH3BP2 (GeneID 6452) | 3 | 0.737
